Patent US9127024B2 (Intrexon Corporation, priority 2013, dated 2015)

By UniProt entry, the sequences of proteins in these tests, tags left out. Residues count along the entry.
UniProt O77240, 1-513: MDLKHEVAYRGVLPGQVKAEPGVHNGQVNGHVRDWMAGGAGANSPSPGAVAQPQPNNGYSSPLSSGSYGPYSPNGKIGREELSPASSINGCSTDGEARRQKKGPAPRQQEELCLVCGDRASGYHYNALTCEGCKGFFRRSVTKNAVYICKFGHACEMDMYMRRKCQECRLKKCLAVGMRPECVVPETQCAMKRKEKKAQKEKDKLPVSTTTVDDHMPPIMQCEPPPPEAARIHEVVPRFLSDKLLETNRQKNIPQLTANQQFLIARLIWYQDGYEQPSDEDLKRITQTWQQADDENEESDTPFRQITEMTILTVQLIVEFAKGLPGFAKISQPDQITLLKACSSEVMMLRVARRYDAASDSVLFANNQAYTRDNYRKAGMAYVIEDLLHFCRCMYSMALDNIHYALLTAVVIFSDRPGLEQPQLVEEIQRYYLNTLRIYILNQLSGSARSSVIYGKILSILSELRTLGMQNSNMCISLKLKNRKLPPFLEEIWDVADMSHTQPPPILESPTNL

Biological target: RheoSwitch® (CHO-K1_RS-1 cells, firefly Luciferase reporter) (Choristoneura fumiferana, UniProt O77240)
Assay: in vitro gene switch assay (fLUC Luciferase expression, potency screen)
Type: cell-based
Settings: read-out: fLUC assay EC50, 24 hours with compound, 25 μM to 2.5 pM, figure in parentheses after a value not defined
Description: Representative Compounds of the Disclosure were tested for biological activity in an in vitro gene switch assay (Tables 1 and 1A). Gene switch assays are disclosed, e.g., in U.S. Pat. Nos. 8,076,517; 7,456,315; 7,304,161; and 6,258,603.
CHO-K1 cells were stably transfected with a plasmid (RS-1, FIG. 1) coding for firefly Luciferase (fLUC) under the control of the RheoSwitch® resulting in the stable cell line CHO-K1_RS-1. A master cell bank was created containing approximately 100 vials at 5×10^6 cells per vial. One vial of CHO-K1_RS-1 was thawed and cultured for two weeks prior to each in vitro potency screening.
Twenty-four (24) hours prior to treatment with the control and test compounds the CHO-K1_RS-1 cells were seeded into white-opaque 384-well cell culture plates at 3,600 cells per well in 30 μl of culture medium. The cells were incubated in a humidified CO2 incubator at 37° C. until compound treatment.
Compounds were prepared at 25 mM in 100% dry DMSO and stored at room temperature in sealed 1 ml tubes prior to subsequent dilution and assay. […]
The cells were incubated with the compound for 24 hours in a humidified CO2 incubator at 37° C. […] The reagent was incubated with the cells for 10-120 minutes prior to reading on a Molecular Devices Spectramax L luminometer. […]

`Cc1cc(C)cc(C(=O)N(NC(=O)c2ccc3c(c2C)OCCOB3O)C(C)C)c1` was tested, and the EC50 was 7.4 µM and > 25 µM.

A number of entries come with more than one value. The other results are left out here. The source may hold further records. The records of an entry do not match, cause unknown; dose, time, organism, isomer or construct need not be as stated for each record.
